This continues a long series; more values of the same kind are listed elsewhere.
System: human colon carcinoma cell strain WiDr
Assay: Microarray analysis (2), reviewed conditions, intron expression, Table 3
Format: cell-based
Procedure: WiDr cells were first suspended in RPMI1640 medium (containing 10% FBS, penicillin, and streptomycin) and seeded in a 10 cm dish (2×10^6 cells/dish). After an overnight culture in an incubator with 5% carbon dioxide gas at 37° C., the medium was changed with medium containing 14 nM of (8E,12E,14E)-7-((4-cycloheptylpiperazin-1-yl)carbonyl)oxy-3,6,16,21-tetrahydroxy-6,10,12,16,20-pentamethyl-18,19-epoxytricosa-8,12,14-trien-11-olide or containing vehicle alone. After cultured for additional six hours, TRI reagent (SIGMA) were added to the cells and the cells were harvested. RNA was purified in accordance with the protocol of TRI reagent, followed by further purification with RNeasy (QIAGEN). Absorbance at 260 nm was measured to quantify an amount of RNA. This experiment was repeated three times and RNA samples (n=3) were prepared.
Ribosomal RNA was removed from 1 μg of each total RNA of control cells (n=3) and cells with the treatment (n=3) by using RiboMinus Human/Mouse Transcriptome Isolation Kit (Invitrogen). Single stranded cDNA synthesis, double stranded cDNA synthesis, cRNA synthesis, second single stranded cDNA synthesis, cDNA fragmentation, and cDNA labeling in order were carried out for the total RNA from which ribosomal RNA was removed, by using GeneChip Whole Transcript Sense Target Labeling and Control Reagents (Affymetrix) to make a cDNA probe. The cDNA probe was used for hybridization with Human Exon 1.0 ST Array (Affymetrix). The array was washed and stained, and luminescence intensity was measured by a scanner.
Analysis conditions were reviewed in the data used in Example 3. Genes containing increased introns upon treatment with (8E,12E,14E)-7-((4-cycloheptylpiperazin-1-yl)carbonyl)oxy-3,6,16,21-tetrahydroxy-6,10,12,16,20-pentamethyl-18,19-epoxytricosa-8,12,14-trien-11-olide were identified.
In order to consider the analysis conditions, variations in the data from the samples with identical conditions were studied. […] It turned out that, by analyzing under conditions where the expression level was more than 100 and change in the expression level was more than five times, a probe set with increased expression can be extracted.
Probe sets showing that the normalized change in the level expression of the probe set in the group with the treatment was more than 5 times; the expression level of the probe set and the gene in the group with the treatment were more than 100; and probe set annotation was “extended, full, free”, were picked out. Welch's t-test was conducted with the probe sets extracted for the treated group and the control group to determine a p and q value. A gene containing the probe sets with the q value of less than 5% was determined as a candidate gene with increased expression level of the intron regions (Table 3).
In Table 3, for each gene evaluated, gene name (Gene Name), abbreviated name (Gene Symbol), accession number (Accession), alias name (Synonym), transcription cluster number in Human Exon 1.0 ST Array (Human Exon 1.0 ST Array Transcript Cluster ID), chromosome number (Chromosome), type of strand (Strand), start region (Start), stop region (Stop), and change in expression level (Fold Change) were respectively shown.

SMILES: CCC(O)C(C)C1OC1CC(C)(O)/C=C/C=C(\C)C1OC(=O)CC(O)CCC(C)(O)C(OC(=O)N2CCN(C3CCCCCC3)CC2)/C=C/C1C (stereo not shown) [E7107, (8E,12E,14E)-7-((4-cycloheptylpiperazin-1-yl)carbonyl)oxy-3,6,16,21-tetrahydroxy-6,10,12,16,20-pentamethyl-18,19-epoxytricosa-8,12,14-trien-11-olide]
- Fold Change (gene RBM23 // C9orf102, Transcript Cluster ID 3556888, intron expression, treated vs control): 9.18
- Fold Change (gene RBM25, Transcript Cluster ID 3543411, intron expression, treated vs control): 10.23
- Fold Change (gene RBM26, change in expression level, treated vs control): 21.52
- Fold Change (gene RBM39, intron expression, treated vs control): 7.35
- Fold Change (gene RBMS2, Transcript Cluster ID 3417583, intron expression, treated vs control): 9.78
- Fold Change (gene RCP9, Transcript Cluster ID 3005332): 5.15
- Fold Change (gene RFWD3, intron expression, treated vs control): 6.68
- Fold Change (gene RGS3, intron expression, treated vs control): 6.71
- Fold Change (gene RIC8A, Transcript Cluster ID 3315512, intron expression, treated vs control): 9.52
- Fold Change (gene RIF1, change in expression level, treated vs control): 18.85
- Fold Change (gene RIOK3, change in expression level, treated vs control): 13.87
- Fold Change (gene RNF40, change in expression level, treated vs control): 11.42
- Fold Change (gene RNF138, Transcript Cluster ID 3783749): 5.26
- Fold Change (gene RNMTL1, Transcript Cluster ID 3705539, intron expression, treated vs control): 10.45
- Fold Change (gene RPL8, change in expression level, treated vs control): 6.11
- Fold Change (gene RPL18, intron expression, treated vs control): 7.29
- Fold Change (gene RPL30, intron expression, treated vs control): 7.31
- Fold Change (gene RPLP0-like // RPLP0, Transcript Cluster ID 3474344): 5.44
- Fold Change (gene RPS15A, Transcript Cluster ID 3683018): 5.07
- Fold Change (gene RPUSD4, intron expression, treated vs control): 6.76
- Fold Change (gene RQCD1 // PLCD4, change in expression level, treated vs control): 6.24
- Fold Change (gene RRM2, Transcript Cluster ID 2469252, intron expression, treated vs control): 10.35
- Fold Change (gene RSL1D1, Transcript Cluster ID 3680583): 5.22
- Fold Change (gene RSPRY1, Transcript Cluster ID 3662612, intron expression, treated vs control): 10.87
- Fold Change (gene RTN4, Transcript Cluster ID 2553576): 5.15
- Fold Change (gene SAAL1, Transcript Cluster ID 3365249): 5.45
- Fold Change (gene SBNO1, change in expression level, treated vs control): 17.44
- Fold Change (gene SCYL2, change in expression level, treated vs control): 6.12
- Fold Change (gene SDCCAG10, change in expression level, treated vs control): 6.15
- Fold Change (gene SEC14L1, intron expression, treated vs control): 7.45
- Fold Change (gene SEC24B, change in expression level, treated vs control): 6.24
- Fold Change (gene SEC61G, Transcript Cluster ID 3051395): 5.19
- Fold Change (gene SEH1L, change in expression level, treated vs control): 6.17
- Fold Change (gene SENP3, intron expression, treated vs control): 6.82
- Fold Change (gene SENP5, change in expression level, treated vs control): 5.94
- Fold Change (gene SERBP1, Transcript Cluster ID 2417174, intron expression, treated vs control): 9.26
- Fold Change (gene SET, change in expression level, treated vs control): 6.12
- Fold Change (gene SETD2, Transcript Cluster ID 2672532): 5.09
- Fold Change (gene SETD5, Transcript Cluster ID 2609608, intron expression, treated vs control): 9.36
- Fold Change (gene SETX, intron expression, treated vs control): 7.00
- Fold Change (gene SF1, intron expression, treated vs control): 6.69
- Fold Change (gene SF3A3, Transcript Cluster ID 2407439): 5.11
- Fold Change (gene SF3B1, Transcript Cluster ID 2593670, intron expression, treated vs control): 9.52
- Fold Change (gene SF3B2, intron expression, treated vs control): 7.14
- Fold Change (gene SF3B4, Transcript Cluster ID 2434159): 5.05
- Fold Change (gene SFPQ, Transcript Cluster ID 2406064, intron expression, treated vs control): 9.80
- Fold Change (gene SFRS1, Transcript Cluster ID 3764103, intron expression, treated vs control): 10.37
- Fold Change (gene SFRS3, change in expression level, treated vs control): 11.05
- Fold Change (gene SFRS5, Transcript Cluster ID 3542207, intron expression, treated vs control): 9.42
- Fold Change (gene SFRS6, Transcript Cluster ID 3886050): 5.21
- Fold Change (gene SFRS11, intron expression, treated vs control): 7.12
- Fold Change (gene SFRS15, change in expression level, treated vs control): 6.30
- Fold Change (gene SGK, Transcript Cluster ID 2975014): 5.38
- Fold Change (gene SH3RF2, change in expression level, treated vs control): 6.30
- Fold Change (gene SHC1, change in expression level, treated vs control): 6.15
- Fold Change (gene SLC3A2, Transcript Cluster ID 3333711): 5.15
- Fold Change (gene SLC7A1, change in expression level, treated vs control): 6.07
- Fold Change (gene SLC25A32, change in expression level, treated vs control): 12.60
- Fold Change (gene SLC30A9, change in expression level, treated vs control): 6.23
- Fold Change (gene SLC39A7 // RING1, Transcript Cluster ID 2903470, intron expression, treated vs control): 10.55
- Fold Change (gene SMAD3, Transcript Cluster ID 3598959, intron expression, treated vs control): 8.97
- Fold Change (gene SMARCD1, change in expression level, treated vs control): 10.90
- Fold Change (gene SMC3, change in expression level, treated vs control): 6.28
- Fold Change (gene SMG5, Transcript Cluster ID 2438042): 5.14
- Fold Change (gene SMG7, intron expression, treated vs control): 7.09
- Fold Change (gene SMNDC1, Transcript Cluster ID 3306516, intron expression, treated vs control): 9.38
- Fold Change (gene SMU1, change in expression level, treated vs control): 6.06
- Fold Change (gene SMURF1, Transcript Cluster ID 3063083): 5.11
- Fold Change (gene SMURF2, change in expression level, treated vs control): 13.92
- Fold Change (gene SNAG1, Transcript Cluster ID 2809628, intron expression, treated vs control): 9.07
- Fold Change (gene SNRPB2, change in expression level, treated vs control): 6.49
- Fold Change (gene SNRPB, Transcript Cluster ID 3894995): 5.23
- Fold Change (gene SNX5, intron expression, treated vs control): 6.89
- Fold Change (gene SON, intron expression, treated vs control): 7.20
- Fold Change (gene SP3 // RP11-114G1.1, Transcript Cluster ID 2587520): 5.20
- Fold Change (gene SPAG5, Transcript Cluster ID 3750785, intron expression, treated vs control): 10.12
- Fold Change (gene SPRED1, intron expression, treated vs control): 6.76
- Fold Change (gene SPRY2, intron expression, treated vs control): 7.07
- Fold Change (gene SQLE, intron expression, treated vs control): 7.20
- Fold Change (gene SR-A1, intron expression, treated vs control): 7.01
- Fold Change (gene SRCAP, change in expression level, treated vs control): 11.09
- Fold Change (gene SREBF2, Transcript Cluster ID 3947123): 5.12
- Fold Change (gene SRP68, intron expression, treated vs control): 7.41
- Fold Change (gene SRP72, Transcript Cluster ID 2728224): 5.19
- Fold Change (gene SSFA2, change in expression level, treated vs control): 10.95
- Fold Change (gene SSNA1, Transcript Cluster ID 3195296): 5.22
- Fold Change (gene SSR1, intron expression, treated vs control): 6.94
- Fold Change (gene SSR2, intron expression, treated vs control): 6.52
- Fold Change (gene STAM, Transcript Cluster ID 3237088, intron expression, treated vs control): 9.11
- Fold Change (gene SUPT4H1, change in expression level, treated vs control): 6.19
- Fold Change (gene SUPT6H, Transcript Cluster ID 3715703, intron expression, treated vs control): 10.38
- Fold Change (gene SUPT7L, Transcript Cluster ID 2546008, intron expression, treated vs control): 9.15
- Fold Change (gene SURF6, Transcript Cluster ID 3228621): 5.32
- Fold Change (gene SYNCRIP, intron expression, treated vs control): 7.47
- Fold Change (gene TACC3, Transcript Cluster ID 2714955, intron expression, treated vs control): 9.12
- Fold Change (gene TAF5L // MUC4, Transcript Cluster ID 2459971): 5.18
- Fold Change (gene TARDBP, Transcript Cluster ID 2320048, intron expression, treated vs control): 9.82
- Fold Change (gene TBRG4, Transcript Cluster ID 3049025, intron expression, treated vs control): 9.01
- Fold Change (gene TCEB3, change in expression level, treated vs control): 12.38
- Fold Change (gene TCERG1, Transcript Cluster ID 2834093, intron expression, treated vs control): 10.18
- Fold Change (gene TERF2, change in expression level, treated vs control): 6.00
- Fold Change (gene TERF2IP, Transcript Cluster ID 3669092, intron expression, treated vs control): 10.25
- Fold Change (gene TES, Transcript Cluster ID 3020192, intron expression, treated vs control): 10.53

Source: patent US20100021918A1, “METHOD FOR ASSAYING ACTION OF ANTITUMOR AGENT USING SPLICING DEFECTS AS INDEX” (Eisai R&D Management Co., Ltd., priority 2007, published 2010)
